Data as given in PubChem BioAssay AID1259260 (Sanger Institute, 2017).

Screen: 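Kinome knock-down with three anchor drugs to find synergy partners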 (primary screen)
Cell system: human NCI-H716 colorectal cancer cells
Knock-down reagent: siRNA pool against human genes
Challenge: anchor drugs BYL719 (alpelisib) 1 µM, cetuximab 5 µg/ml or trametinib 10 nM, each at a dose chosen to harm viability only mildly; DMSO vehicle for the knock-down-alone arm
Measurement: 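Replicate-averaged viability relative to a non-targeting pool, a robust z-score for knock-down alone, and a synergy score per anchor drug versus each agent alone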
Scale: viability robust z-score, siRNA alone: higher = more surviving cells; below -3 called essential; viability vs control, no drug: higher = more surviving cells
Hit rule: 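a knock-down counts as essential if its no-drug robust z-score is lower than -3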
Calls: active = essential (knock-down alone lowers viability); inactive = no essential effect
In all, the deposit lists 794 reagents; shown is a random part of them. 13 of them (1.6%) count as active. 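Calls reflect only knock-down without drug; synergy above 0.15 was grouped apart and does not change the call.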 Entries without a mark were called inactive. No viability above 1 is reported: the scale is capped. Not all columns of the deposit are shown. Reagent sequences are not shown. The record does not give: the amount of reagent, the time to read-out.

| gene knocked down | viability robust z-score, siRNA alone | viability vs control, no drug (fraction of control) |
| --- | --- | --- |
| KRAS | 0.602 | 1 |
| AK3 | 0.602 | 1 |
| SKAP1 | 0.602 | 1 |
| PRPS2 | 0.602 | 1 |
| FGR | -1.22 | 0.811 |
| PRKACG | 0.602 | 1 |
| GUCY2EP | 0.602 | 1 |
| SIK2 | -0.0394 | 0.933 |
| CSK | 0.0436 | 0.942 |
| PGK1 | 0.602 | 1 |
| TWF2 | 0.602 | 1 |
| FN3KRP | -1.43 | 0.788 |
| EPHA10 | -0.595 | 0.876 |
| EPHB1 | 0.602 | 1 |
| LYN | 0.602 | 1 |
| MARK3 | 0.602 | 1 |
| PXK | -1.11 | 0.822 |
| STK39 | 0.602 | 1 |
| CLK1 | -0.816 | 0.853 |
| DCLK3 | -0.237 | 0.913 |
| PAK6 | 0.602 | 1 |
| PIK3R2 | -0.782 | 0.856 |
| ITK | 0.602 | 1 |
| CAD | -0.783 | 0.856 |
| MAP2K2 | 0.602 | 1 |
| MPP1 | 0.602 | 1 |
| PRKAG2 | 0.602 | 1 |
| EIF2AK4 | -2.28 | 0.7 |
| CDK19 | 0.602 | 1 |
| NEK8 | 0.602 | 1 |
| MAGI3 | -0.38 | 0.898 |
| ULK4 | 0.116 | 0.949 |
| TTK | -1.08 | 0.825 |
| MAPK11 | 0.102 | 0.948 |
| EPHA1 | 0.454 | 0.985 |
| EXOSC10 | -2.76 | 0.651 |
| WHR1 | 0.602 | 1 |
| RPS6KL1 | 0.602 | 1 |
| TBCK | 0.602 | 1 |
| PKIB | 0.602 | 1 |
| PFKFB4 | -0.394 | 0.896 |
| DDR1 | -0.332 | 0.903 |
| DAPK3 | 0.602 | 1 |
| MECOM | 0.602 | 1 |
| TSSK3 | 0.602 | 1 |
| PTPN11 | 0.367 | 0.976 |
| CDK11A | -1.52 | 0.78 |
| ACVRL1 | 0.602 | 1 |
| RPS6KA1 | -0.752 | 0.859 |
| MAP3K2 | 0.602 | 1 |
